PubChem BioAssay AID1259308 – NCATS, 2017

Screen: 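Genes whose loss raises luciferase production in HEK293 cells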 (primary screen)
Cells: human HEK293 embryonic kidney cells stably expressing firefly luciferase (HEK-CMV-Luc2-Hygro)
Reagent: single siRNA against human genes, 0.8 pmol siRNA per well
Duration: 72 h
Detection: 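Reporter luminescence and viable-cell signal on separate replicate plates, given as percent of non-targeting control and median/MAD z-scores, plus per-cell luciferase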
Reading the numbers: total luciferase, z-score: higher = more reporter protein produced
Hit rule: 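Active when the median/MAD z-score for overall luciferase is greater than 3; a gene was taken forward for validation with new siRNAs if at least two of its three siRNAs passed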
Meaning of the calls: active = raised luciferase; inactive = no rise
In all, the deposit lists about 59,000 reagents; below is an unselected part. Over the whole deposit, about 1,510 (2.6%) got an active call. 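Calls use total luciferase alone and ignore viability, so some active siRNAs may act by altering cell number.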 The numbers tell different reagents against one gene apart. Not all columns of the deposit are shown.

RPS16P5 #1 | total luciferase, z-score = -0.643; Outcome = inactive
RPS16P5 #2 | total luciferase, z-score = 2.48; Outcome = inactive
RPS16P5 #3 | total luciferase, z-score = -0.407; Outcome = inactive
MAPK1IP1L #1 | total luciferase, z-score = 0.668; Outcome = inactive
MAPK1IP1L #2 | total luciferase, z-score = 0.177; Outcome = inactive
MAPK1IP1L #3 | total luciferase, z-score = -0.564; Outcome = inactive
CRAT #1 | total luciferase, z-score = 1.38; Outcome = inactive
CRAT #2 | total luciferase, z-score = 1.55; Outcome = inactive
CRAT #3 | total luciferase, z-score = -1.45; Outcome = inactive
CYP2C18 #1 | total luciferase, z-score = -1.11; Outcome = inactive
CYP2C18 #2 | total luciferase, z-score = 0.133; Outcome = inactive
CYP2C18 #3 | total luciferase, z-score = -0.622; Outcome = inactive
RHOC #1 | total luciferase, z-score = 0.542; Outcome = inactive
RHOC #2 | total luciferase, z-score = -0.578; Outcome = inactive
RHOC #3 | total luciferase, z-score = 0.0938; Outcome = inactive
APEX1 #1 | total luciferase, z-score = -0.441; Outcome = inactive
APEX1 #2 | total luciferase, z-score = -2.38; Outcome = inactive
APEX1 #3 | total luciferase, z-score = 1.33; Outcome = inactive
MAFK #1 | total luciferase, z-score = -0.371; Outcome = inactive
MAFK #2 | total luciferase, z-score = -0.128; Outcome = inactive
MAFK #3 | total luciferase, z-score = 2.22; Outcome = inactive

Part of the list above, set out differently.
| gene knocked down | reagent | total luciferase, z-score | Outcome |
| --- | --- | --- | --- |
| MAFK | 1 | -0.371 | inactive |
| MAFK | 2 | -0.128 | inactive |
